Source: article PMC12235857
Results are given in words; binding and its absence hold for the method and conditions named. Binding seen in cells or lysates may run through a third protein. Some binding calls cover weakened binding; strength is not graded here. Values belong to the binder of their own block, whether it stands above or below them.

Sequences of proteins named here, by UniProt entry; tags and fusion partners are left off.
UniProt P19338: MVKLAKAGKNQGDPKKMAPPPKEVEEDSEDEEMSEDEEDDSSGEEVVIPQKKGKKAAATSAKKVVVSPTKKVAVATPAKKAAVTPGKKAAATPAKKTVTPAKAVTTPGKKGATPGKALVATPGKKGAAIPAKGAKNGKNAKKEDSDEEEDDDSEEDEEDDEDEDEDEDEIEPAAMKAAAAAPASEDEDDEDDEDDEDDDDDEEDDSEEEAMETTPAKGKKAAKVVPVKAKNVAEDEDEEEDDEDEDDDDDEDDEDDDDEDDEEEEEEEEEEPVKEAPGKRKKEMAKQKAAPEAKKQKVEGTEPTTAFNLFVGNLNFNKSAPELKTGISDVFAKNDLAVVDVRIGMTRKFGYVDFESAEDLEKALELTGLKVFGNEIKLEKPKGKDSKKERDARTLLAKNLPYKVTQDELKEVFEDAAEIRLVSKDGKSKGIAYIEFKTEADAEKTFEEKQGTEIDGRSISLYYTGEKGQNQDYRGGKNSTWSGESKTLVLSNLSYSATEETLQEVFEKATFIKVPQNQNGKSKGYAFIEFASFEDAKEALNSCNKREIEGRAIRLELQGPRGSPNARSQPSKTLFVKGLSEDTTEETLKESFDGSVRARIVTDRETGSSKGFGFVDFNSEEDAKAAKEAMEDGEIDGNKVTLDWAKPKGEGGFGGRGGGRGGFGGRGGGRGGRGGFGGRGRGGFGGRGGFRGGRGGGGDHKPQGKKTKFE

Experiments:
[1] = molecular target: T1, ATF2 (human (endogenous in B cells from PBMCs)), P15336; assay: co-IP; control and PTN recombinant protein-treated B cells; immunoprecipitation and Western blotting; which protein was precipitated is not clearly told; conditions: remark: other sources report otherwise
T1 chain: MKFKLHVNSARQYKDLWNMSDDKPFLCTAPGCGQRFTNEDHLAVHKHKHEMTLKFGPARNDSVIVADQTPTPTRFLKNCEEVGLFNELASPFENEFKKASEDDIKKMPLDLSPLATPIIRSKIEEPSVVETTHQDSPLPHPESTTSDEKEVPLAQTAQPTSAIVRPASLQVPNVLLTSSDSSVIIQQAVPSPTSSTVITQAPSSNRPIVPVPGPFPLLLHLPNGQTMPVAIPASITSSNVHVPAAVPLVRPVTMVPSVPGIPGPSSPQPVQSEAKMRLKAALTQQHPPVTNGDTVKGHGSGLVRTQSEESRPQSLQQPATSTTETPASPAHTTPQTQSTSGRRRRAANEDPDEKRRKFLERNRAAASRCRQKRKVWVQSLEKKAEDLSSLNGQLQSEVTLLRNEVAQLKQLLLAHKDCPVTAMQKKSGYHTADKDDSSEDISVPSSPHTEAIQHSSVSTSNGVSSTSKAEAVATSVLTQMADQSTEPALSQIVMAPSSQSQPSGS

[2] = molecular target: nucleolin (NCL) (human (endogenous in B cells from PBMCs)) (UniProt P19338); assay: co-IP; B cells treated with PTN recombinant protein for different times; immunoprecipitation and Western blotting of cytoplasmic and nuclear fractions; which protein was precipitated is not told

binding [1]: binds
B1: c-Jun, P05412 1-331 (protein)
chain: MTAKMETTFYDDALNASFLPSESGPYGYSNPKILKQSMTLNLADPVGSLKPHLRAKNSDLLTSPDVGLLKLASPELERLIIQSSNGHITTTPTPTQFLCPKNVTDEQEGFAEGFVRALAELHSQNTLPSVTSAAQPVNGAGMVAPAVASVAGGSGSGGFSASLHSEPPVYANLSNFNPGALSSGGGAPSYGAAGLAFPAQPQQQQQPPHHLPQQMPVQHPRLQALKEEPQTVPEMPGETPPLSPIDMESQERIKAERKRMRNRIAASKCRKRKLERIARLEEKVKTLKAQNSELASTANMLREQVAQLKQKVMNHVNSGCQLMLTQQLQTF

binding [2]: binds
B2: recombinant PTN (pleiotrophin; heparin-binding growth factor PTN) (ligand, UniProt P21246 33-168)
chain: GKKEKPEKKVKKSDCGEWQWSVCVPTSGDCGLGTREGTRTGAECKQTMKTQRCKIPCNWKKQFGAECKYQFQAWGECDLNTALKTRTGSLKRALHNAECQKTVTISKPCGKLTKPKPQAESKKKKKEGKKQEKMLD
